Experimental data published in article PMC6949271.
No constants are given. Whether binding was seen depends on the method and setting. Binding seen in cells or lysates may run through a third protein. For some assays here: A result given as binding can be weak or reduced; the word gives no strength.

Protein sequences, listed by entry. Tags and fused reporters are not part of them. Lines headed by an entry give the natural chain unless they say otherwise; changes in a name come on top.
UniProt Q92547: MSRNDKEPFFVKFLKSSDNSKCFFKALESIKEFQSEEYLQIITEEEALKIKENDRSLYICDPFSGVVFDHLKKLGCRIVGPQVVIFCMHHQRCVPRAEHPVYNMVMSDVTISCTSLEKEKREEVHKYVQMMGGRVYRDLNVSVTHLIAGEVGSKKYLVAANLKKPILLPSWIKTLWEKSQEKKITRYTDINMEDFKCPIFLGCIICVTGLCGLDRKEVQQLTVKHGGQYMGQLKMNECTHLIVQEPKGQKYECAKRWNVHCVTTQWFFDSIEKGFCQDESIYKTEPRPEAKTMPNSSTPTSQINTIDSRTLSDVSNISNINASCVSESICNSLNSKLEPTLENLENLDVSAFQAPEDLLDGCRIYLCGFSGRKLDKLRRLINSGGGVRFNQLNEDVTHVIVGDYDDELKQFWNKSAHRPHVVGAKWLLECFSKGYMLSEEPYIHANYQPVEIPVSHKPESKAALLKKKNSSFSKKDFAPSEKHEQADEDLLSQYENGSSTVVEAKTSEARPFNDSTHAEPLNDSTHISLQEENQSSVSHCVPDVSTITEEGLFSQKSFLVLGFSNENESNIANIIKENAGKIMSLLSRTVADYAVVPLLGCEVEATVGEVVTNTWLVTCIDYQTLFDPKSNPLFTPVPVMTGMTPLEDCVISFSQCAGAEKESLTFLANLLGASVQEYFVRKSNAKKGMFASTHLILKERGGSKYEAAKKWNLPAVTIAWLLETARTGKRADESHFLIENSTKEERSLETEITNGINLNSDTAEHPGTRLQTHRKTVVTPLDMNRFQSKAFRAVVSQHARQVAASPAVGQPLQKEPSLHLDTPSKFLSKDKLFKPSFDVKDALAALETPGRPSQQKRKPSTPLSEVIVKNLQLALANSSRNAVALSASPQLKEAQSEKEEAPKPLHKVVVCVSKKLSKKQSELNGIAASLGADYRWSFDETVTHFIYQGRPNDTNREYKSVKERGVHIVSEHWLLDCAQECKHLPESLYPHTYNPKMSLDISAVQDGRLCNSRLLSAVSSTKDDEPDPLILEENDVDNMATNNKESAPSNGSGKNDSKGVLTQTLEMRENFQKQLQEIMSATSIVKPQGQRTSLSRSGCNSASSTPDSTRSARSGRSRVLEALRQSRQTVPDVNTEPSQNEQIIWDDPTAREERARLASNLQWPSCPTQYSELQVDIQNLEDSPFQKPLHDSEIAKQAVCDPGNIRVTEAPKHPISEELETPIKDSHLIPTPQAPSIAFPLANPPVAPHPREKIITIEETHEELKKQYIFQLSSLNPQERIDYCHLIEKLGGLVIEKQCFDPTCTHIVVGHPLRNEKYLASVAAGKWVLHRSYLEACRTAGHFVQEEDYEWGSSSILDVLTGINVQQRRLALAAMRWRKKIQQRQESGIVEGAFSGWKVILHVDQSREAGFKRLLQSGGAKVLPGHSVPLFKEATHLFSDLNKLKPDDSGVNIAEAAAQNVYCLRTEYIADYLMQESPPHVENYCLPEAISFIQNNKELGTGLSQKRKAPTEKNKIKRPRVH

Assays:
GST-TOPBP1 BRCT0-2 = experiment: pull-down; 5 µg purified GST-TOPBP1 BRCT fusion protein mixed with 33 µl HeLa nuclear extract (7 mg/ml), 1.5 h at 4 °C, glutathione-Sepharose; wash 50 mM Tris pH 7.5, 150 mM NaCl, 1 mM DTT, 0.2% NP-40; only the target purified
[1] = molecular target: GFP-tagged full-length TOPBP1, BRCT2 mutant (Lys to Ala) (UniProt Q92547); experiment: co-IP; GFP-tagged TOPBP1 constructs captured on GFP-Trap magnetic agarose from Benzonase-treated lysates of transfected 293FT cells (200 mM NaCl, 2 mM EDTA, 4 °C); endogenous partners detected by blot

B1: Treacle, endogenous (HeLa nuclear extract) (protein, UniProt Q13428 1-1488)
chain: MAEARKRRELLPLIYHHLLRAGYVRAAREVKEQSGQKCFLAQPVTLLDIYTHWQQTSELGRKRKAEEDAALQAKKTRVSDPISTSESSEEEEEAEAETAKATPRLASTNSSVLGADLPSSMKEKAKAETEKAGKTGNSMPHPATGKTVANLLSGKSPRKSAEPSANTTLVSETEEEGSVPAFGAAAKPGMVSAGQADSSSEDTSSSSDETDVEGKPSVKPAQVKASSVSTKESPARKAAPAPGKVGDVTPQVKGGALPPAKRAKKPEEESESSEEGSESEEEAPAGTRSQVKASEKILQVRAASAPAKGTPGKGATPAPPGKAGAVASQTKAGKPEEDSESSSEESSDSEEETPAAKALLQAKASGKTSQVGAASAPAKESPRKGAAPAPPGKTGPAVAKAQAGKREEDSQSSSEESDSEEEAPAQAKPSGKAPQVRAASAPAKESPRKGAAPAPPRKTGPAAAQVQVGKQEEDSRSSSEESDSDREALAAMNAAQVKPLGKSPQVKPASTMGMGPLGKGAGPVPPGKVGPATPSAQVGKWEEDSESSSEESSDSSDGEVPTAVAPAQEKSLGNILQAKPTSSPAKGPPQKAGPVAVQVKAEKPMDNSESSEESSDSADSEEAPAAMTAAQAKPALKIPQTKACPKKTNTTASAKVAPVRVGTQAPRKAGTATSPAGSSPAVAGGTQRPAEDSSSSEESDSEEEKTGLAVTVGQAKSVGKGLQVKAASVPVKGSLGQGTAPVLPGKTGPTVTQVKAEKQEDSESSEEESDSEEAAASPAQVKTSVKKTQAKANPAAARAPSAKGTISAPGKVVTAAAQAKQRSPSKVKPPVRNPQNSTVLARGPASVPSVGKAVATAAQAQTGPEEDSGSSEEESDSEEEAETLAQVKPSGKTHQIRAALAPAKESPRKGAAPTPPGKTGPSAAQAGKQDDSGSSSEESDSDGEAPAAVTSAQVIKPPLIFVDPNRSPAGPAATPAQAQAASTPRKARASESTARSSSSESEDEDVIPATQCLTPGIRTNVVTMPTAHPRIAPKASMAGASSSKESSRISDGKKQEGPATQVSKKNPASLPLTQAALKVLAQKASEAQPPVARTQPSSGVDSAVGTLPATSPQSTSVQAKGTNKLRKPKLPEVQQATKAPESSDDSEDSSDSSSGSEEDGEGPQGAKSAHTLGPTPSRTETLVEETAAESSEDDVVAPSQSLLSGYMTPGLTPANSQASKATPKLDSSPSVSSTLAAKDDPDGKQEAKPQQAAGMLSPKTGGKEAASGTTPQKSRKPKKGAGNPQASTLALQSNITQCLLGQPWPLNEAQVQASVVKVLTELLEQERKKVVDTTKESSRKGWESRKRKLSGDQPAARTPRSKKKKKLGAGEGGEASVSPEKTSTTSKGKAKRDKASGDVKEKKGKGSLGSQGAKDEPEEELQKGMGTVEGGDQSNPKSKKEKKKSDKRKKDKEKKEKKKKAKKASTKDSESPSQKKKKKKKKTAEQTV
In the case of B1, the binding (GST-TOPBP1 BRCT0-2) is reported as “binds”.

B2: Treacle, endogenous (293FT) (protein, UniProt Q13428 1-1488)
chain: MAEARKRRELLPLIYHHLLRAGYVRAAREVKEQSGQKCFLAQPVTLLDIYTHWQQTSELGRKRKAEEDAALQAKKTRVSDPISTSESSEEEEEAEAETAKATPRLASTNSSVLGADLPSSMKEKAKAETEKAGKTGNSMPHPATGKTVANLLSGKSPRKSAEPSANTTLVSETEEEGSVPAFGAAAKPGMVSAGQADSSSEDTSSSSDETDVEGKPSVKPAQVKASSVSTKESPARKAAPAPGKVGDVTPQVKGGALPPAKRAKKPEEESESSEEGSESEEEAPAGTRSQVKASEKILQVRAASAPAKGTPGKGATPAPPGKAGAVASQTKAGKPEEDSESSSEESSDSEEETPAAKALLQAKASGKTSQVGAASAPAKESPRKGAAPAPPGKTGPAVAKAQAGKREEDSQSSSEESDSEEEAPAQAKPSGKAPQVRAASAPAKESPRKGAAPAPPRKTGPAAAQVQVGKQEEDSRSSSEESDSDREALAAMNAAQVKPLGKSPQVKPASTMGMGPLGKGAGPVPPGKVGPATPSAQVGKWEEDSESSSEESSDSSDGEVPTAVAPAQEKSLGNILQAKPTSSPAKGPPQKAGPVAVQVKAEKPMDNSESSEESSDSADSEEAPAAMTAAQAKPALKIPQTKACPKKTNTTASAKVAPVRVGTQAPRKAGTATSPAGSSPAVAGGTQRPAEDSSSSEESDSEEEKTGLAVTVGQAKSVGKGLQVKAASVPVKGSLGQGTAPVLPGKTGPTVTQVKAEKQEDSESSEEESDSEEAAASPAQVKTSVKKTQAKANPAAARAPSAKGTISAPGKVVTAAAQAKQRSPSKVKPPVRNPQNSTVLARGPASVPSVGKAVATAAQAQTGPEEDSGSSEEESDSEEEAETLAQVKPSGKTHQIRAALAPAKESPRKGAAPTPPGKTGPSAAQAGKQDDSGSSSEESDSDGEAPAAVTSAQVIKPPLIFVDPNRSPAGPAATPAQAQAASTPRKARASESTARSSSSESEDEDVIPATQCLTPGIRTNVVTMPTAHPRIAPKASMAGASSSKESSRISDGKKQEGPATQVSKKNPASLPLTQAALKVLAQKASEAQPPVARTQPSSGVDSAVGTLPATSPQSTSVQAKGTNKLRKPKLPEVQQATKAPESSDDSEDSSDSSSGSEEDGEGPQGAKSAHTLGPTPSRTETLVEETAAESSEDDVVAPSQSLLSGYMTPGLTPANSQASKATPKLDSSPSVSSTLAAKDDPDGKQEAKPQQAAGMLSPKTGGKEAASGTTPQKSRKPKKGAGNPQASTLALQSNITQCLLGQPWPLNEAQVQASVVKVLTELLEQERKKVVDTTKESSRKGWESRKRKLSGDQPAARTPRSKKKKKLGAGEGGEASVSPEKTSTTSKGKAKRDKASGDVKEKKGKGSLGSQGAKDEPEEELQKGMGTVEGGDQSNPKSKKEKKKSDKRKKDKEKKEKKKKAKKASTKDSESPSQKKKKKKKKTAEQTV
With B2 the binding [1] was “no binding”.
